# Measurements taken from PubChem BioAssay AID493014 (National Center for Advancing Translational Sciences (NCATS), 2011).
# Where “and” joins values, the source holds several entries; their conditions need not be identical. Equal values may be shown once. This is one part of the list. These are further read-outs of the screen, such as a control signal, another cell line or another target. No call is given for them. Compounds called inactive in the main read-out are mostly missing here. Words in brackets tell the shape of the fitted curve; partial curves, single points and poor fits give uncertain potencies. Square brackets hold non-standard residues; d marks the D form. Peptide text beside a SMILES is read from it. pGlu = O=C1CC[CH](C(=O)O)N1
# Assay: qHTS Assay to Find Inhibitors of Chronic Active B-Cell Receptor Signaling
# Conditions: ABC-DLBCL IkBa-CBG/CBR reporter, luminescence ratio (green luciferase fused to IkBa over red control in TMD8 lymphoma cells), 4 h
# Procedure, shortened: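 Doxycycline induced both beetle luciferases in TMD8 lymphoma cells; IKK-driven degradation limits the IkappaBalpha-fused green signal, while red luminescence normalises for cell number and nonspecific effects. Compounds tested up to 46 uM, 4 hrs.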
# [1] = measured here: CBR red luminescence, cell number
# [2] = measured here: IkBa-CBG green luminescence
Compound,AC50 [1],AC50 [2]
COc1ccc(-n2ncc3c(NCc4ccco4)ncnc32)cc1,"4.47 µM [rising, single point]",–
Cc1ccccc1Cc1c(C)nc2c(C(=O)NCc3ccco3)cnn2c1C,"12.6 µM [falling, single point]",–
O=C(CSc1nc2ccccc2c(=O)n1Cc1ccco1)N1CCCC1,"7.08 µM [falling, partial curve, poor fit]",–
Cc1ccc(C)c(NC(=O)CSc2nccn2Cc2ccco2)c1,"0.447 µM [falling, partial curve, poor fit]",–
C/C(CC(=O)NCc1ccc(Cl)cc1)=N\NC(=O)c1ccccc1F,"20 µM [falling, partial curve, poor fit]",–
O=C(O)CN1C(=O)/C(=C\c2cc(Br)ccc2OCc2ccc([N+](=O)[O-])cc2)SC1=S,"8.91 µM [rising, partial curve, poor fit]",–
COCCNC(=O)c1cc2c(-c3ccccc3F)nn(C)c2s1,"4.61 µM [falling, full curve]",–
COc1ccc(NC(=O)c2cccc(NC(=O)c3ccccc3)c2)c(OC)c1,"35.5 µM [falling, single point]",–
CCOc1ccc(NC(=O)CSc2nc3nc4c(cc3c(=O)n2CC)COC(C)(C)C4)cc1,"12.6 µM [rising, partial curve, poor fit]","7.94 µM [falling, partial curve, poor fit]"
CCn1c(COc2cccc3cccnc23)nnc1SCC(=O)O,"0.517 µM [falling, partial curve, poor fit]",–
COc1cc(NC(=O)c2ccc3c(=O)n(Cc4ccco4)c(=S)[nH]c3c2)cc(OC)c1OC,"0.251 µM [falling, full curve, poor fit]",–
O=C(CCN1C(=O)C2C3C=CC(C3)C2C1=O)NCCc1ccccc1Cl (stereo not drawn),"1.03 µM [rising, full curve, poor fit]",–
COc1ccc(C(=O)Nc2ccc3c(c2)CCCN3C(=O)c2cccs2)c(OC)c1,"31.6 µM [falling, single point]",–
O=C(O)c1ccc(Nc2nc(-c3cccnc3)cs2)cc1,"0.112 µM [falling, full curve]",–
COc1ccc(NS(=O)(=O)c2csc(C(N)=O)c2)cc1OC,"3.98 µM [rising, full curve]",–
Cc1ccc(S(=O)(=O)CCc2nnc(NC(=O)C3CCCO3)s2)cc1 (stereo not drawn),"16.4 µM [rising, single point]",–
CCOC(=O)CSc1nnc(NCC(=O)OC)c(=O)[nH]1,"14.6 µM [falling, partial curve, poor fit]",–
CCn1c2ccc(OC)cc2c2nc3ccccc3nc21,"1.03 µM [falling, full curve]",–
COC(CNC(=O)c1coc2nc3ccccc3nc12)OC,"12.6 µM [falling, single point]",–
O=C(COC(=O)Cc1c[nH]c2ccccc12)Nc1ccccc1,"5.8 µM [falling, partial curve]",–
Cc1noc(C)c1COc1cccc(C(=O)Nc2ccc(C#N)cc2)c1,"3.66 µM [falling, partial curve, poor fit]",–

# Gathered by group: the entries above with a Cl atom.
Compound,AC50 [1],AC50 [2]
C/C(CC(=O)NCc1ccc(Cl)cc1)=N\NC(=O)c1ccccc1F,"20 µM [falling, partial curve, poor fit]",–
O=C(CCN1C(=O)C2C3C=CC(C3)C2C1=O)NCCc1ccccc1Cl (stereo not drawn),"1.03 µM [rising, full curve, poor fit]",–

# Additional results.

Compound,AC50 [1],AC50 [2]
COc1cc2c(cc1OC)C(CCc1ccccc1)=NCC2,"3.16 µM [falling, single point]",–
O=[N+]([O-])c1ccc(-c2cc(-c3ccc(Cl)cc3)n[nH]2)cc1,"0.447 µM [rising, full curve, poor fit]",–
COc1ccccc1Nc1c([N+](=O)[O-])cc(C)cc1[N+](=O)[O-],"25.1 µM [falling, single point]",–
COc1cc(C(=O)Nc2nc3ccccc3[nH]2)cc(OC)c1OC,"9.2 µM [falling, partial curve, poor fit]",–
Cc1cc(Br)cc(Br)c1OCC(=O)NNC(=O)CCC(=O)NCc1ccccc1,"35.5 µM [rising, partial curve, poor fit]",–
O=C(CSc1ccccc1)NCc1cccnc1,"7.08 µM [rising, partial curve, poor fit]",–
O=C(O)Cc1ccc(C(=O)c2cccs2)s1,"2.51 µM [rising, full curve, poor fit]",–
COc1cc2ccccc2cc1C(=O)NC1CCC(C)CC1 (stereo not drawn),"23.1 µM [rising, partial curve, poor fit]",–
Cc1cc2cc3c(cc2nc1SCC(=O)O)CCC3,–,"3.98 µM [rising, full curve, poor fit]"
O=Nc1c(-c2ccccc2)cc2ccccn12,"22.4 µM [falling, single point]",–
COc1ccc(C(=O)Oc2ccc(/C=N/O)cc2)cc1,"35.5 µM [rising, single point]",–
C=CCNc1ncnc2c1ncn2C1OC(CO)C(O)C1O (stereo not drawn),"12.6 µM [rising, partial curve]","10 µM [falling, partial curve]"
CCOc1ccc(C(=O)N(CN2CCCC2=O)c2ccccc2)cc1,"11.2 µM [falling, partial curve, poor fit]",–
COc1cccc(-c2ccc3ncnc(NCc4cccs4)c3c2)c1,"23.1 µM [falling, single point] and 20.6 µM [falling, single point]",–
CCNC(=O)C(CC(C)C)NC(=O)C(CO)NC(=O)C1CCC(=O)N1 (stereo not drawn) ([pGlu]-Ser-Leu-NHEt; configuration not given here),"6.31 µM [rising, single point]",–
Cc1ccc(-c2cc(-c3n[nH]c(=S)o3)c3ccccc3n2)cc1,"1.84 µM [rising, full curve]",–
NS(=O)(=O)c1ccc2nc(NC(=O)C3=COCCO3)sc2c1,"35.5 µM [falling, single point]",–
O=C(Nc1c(Cl)cccc1Cl)c1cc(=O)n(Cc2ccccc2)c(=O)[nH]1,"29.1 µM [rising, single point]",–
COc1ccc(CNc2cccc(F)c2)cc1Br,"20.6 µM [rising, partial curve, poor fit]",–
CC1CCN(C(=O)CCCC(=O)N2CCC(C)CC2)CC1,"5.62 µM [falling, partial curve]",–
